Results: the supplement of paper PMC10849652
The other results are listed elsewhere or left out. Residues, ends and D or L forms follow the SMILES beside them. *: point of attachment. Cbz = O=C(OCc1ccccc1)*

Protein sequences, listed by entry. Tags and fused reporters are not part of them. Lines headed by an entry give the natural chain unless they say otherwise; changes in a name come on top.
UniProt O75475: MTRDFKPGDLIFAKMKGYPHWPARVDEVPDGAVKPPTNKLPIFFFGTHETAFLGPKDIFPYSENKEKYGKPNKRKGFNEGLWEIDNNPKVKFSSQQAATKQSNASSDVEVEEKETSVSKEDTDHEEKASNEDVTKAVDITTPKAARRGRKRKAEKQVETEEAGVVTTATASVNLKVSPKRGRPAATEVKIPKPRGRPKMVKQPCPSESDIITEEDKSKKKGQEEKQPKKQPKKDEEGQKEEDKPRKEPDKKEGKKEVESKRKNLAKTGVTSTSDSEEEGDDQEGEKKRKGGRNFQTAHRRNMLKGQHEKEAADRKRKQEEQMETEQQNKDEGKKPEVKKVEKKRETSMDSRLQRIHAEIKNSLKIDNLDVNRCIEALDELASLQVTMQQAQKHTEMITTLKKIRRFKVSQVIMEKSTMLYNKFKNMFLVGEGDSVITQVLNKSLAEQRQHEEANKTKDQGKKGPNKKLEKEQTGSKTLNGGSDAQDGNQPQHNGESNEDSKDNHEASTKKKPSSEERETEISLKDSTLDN
UniProt P25787: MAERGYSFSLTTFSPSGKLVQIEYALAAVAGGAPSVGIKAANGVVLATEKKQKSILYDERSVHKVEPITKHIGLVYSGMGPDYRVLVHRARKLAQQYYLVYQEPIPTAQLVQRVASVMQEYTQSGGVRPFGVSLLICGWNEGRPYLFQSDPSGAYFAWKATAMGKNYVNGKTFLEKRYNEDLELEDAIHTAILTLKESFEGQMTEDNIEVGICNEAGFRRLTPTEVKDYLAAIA
UniProt O75832: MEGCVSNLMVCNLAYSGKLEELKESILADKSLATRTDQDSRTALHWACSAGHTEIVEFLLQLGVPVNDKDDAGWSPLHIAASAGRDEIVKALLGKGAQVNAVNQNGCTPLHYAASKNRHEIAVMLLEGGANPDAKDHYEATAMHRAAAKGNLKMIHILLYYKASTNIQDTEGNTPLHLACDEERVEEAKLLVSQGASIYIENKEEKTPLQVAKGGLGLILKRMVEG
UniProt P28074: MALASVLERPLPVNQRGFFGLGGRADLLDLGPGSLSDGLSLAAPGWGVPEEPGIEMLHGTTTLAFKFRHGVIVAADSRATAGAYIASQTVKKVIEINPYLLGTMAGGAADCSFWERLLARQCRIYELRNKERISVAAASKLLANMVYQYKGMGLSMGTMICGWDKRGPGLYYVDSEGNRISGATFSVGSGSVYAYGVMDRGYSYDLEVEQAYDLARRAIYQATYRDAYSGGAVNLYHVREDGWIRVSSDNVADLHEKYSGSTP
UniProt O00391: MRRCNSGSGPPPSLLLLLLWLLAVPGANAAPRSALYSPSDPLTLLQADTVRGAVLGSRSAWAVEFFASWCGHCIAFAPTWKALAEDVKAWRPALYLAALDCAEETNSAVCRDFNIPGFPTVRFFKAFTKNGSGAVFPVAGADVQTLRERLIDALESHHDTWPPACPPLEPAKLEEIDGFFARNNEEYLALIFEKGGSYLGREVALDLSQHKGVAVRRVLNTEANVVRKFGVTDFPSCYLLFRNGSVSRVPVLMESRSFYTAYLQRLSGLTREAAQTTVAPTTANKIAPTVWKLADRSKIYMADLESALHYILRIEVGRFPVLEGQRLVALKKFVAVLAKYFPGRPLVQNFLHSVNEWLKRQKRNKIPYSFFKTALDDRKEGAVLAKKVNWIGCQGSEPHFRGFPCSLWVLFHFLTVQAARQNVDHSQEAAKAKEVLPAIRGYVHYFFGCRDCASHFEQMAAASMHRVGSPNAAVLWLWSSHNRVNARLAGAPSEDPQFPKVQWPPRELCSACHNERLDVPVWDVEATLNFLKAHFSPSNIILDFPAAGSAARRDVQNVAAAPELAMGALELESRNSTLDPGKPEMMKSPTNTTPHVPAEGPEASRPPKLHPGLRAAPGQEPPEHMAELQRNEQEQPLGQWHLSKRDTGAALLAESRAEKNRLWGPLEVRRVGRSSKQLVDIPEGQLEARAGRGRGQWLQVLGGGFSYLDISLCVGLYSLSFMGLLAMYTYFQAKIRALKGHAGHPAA
UniProt Q3MIT2: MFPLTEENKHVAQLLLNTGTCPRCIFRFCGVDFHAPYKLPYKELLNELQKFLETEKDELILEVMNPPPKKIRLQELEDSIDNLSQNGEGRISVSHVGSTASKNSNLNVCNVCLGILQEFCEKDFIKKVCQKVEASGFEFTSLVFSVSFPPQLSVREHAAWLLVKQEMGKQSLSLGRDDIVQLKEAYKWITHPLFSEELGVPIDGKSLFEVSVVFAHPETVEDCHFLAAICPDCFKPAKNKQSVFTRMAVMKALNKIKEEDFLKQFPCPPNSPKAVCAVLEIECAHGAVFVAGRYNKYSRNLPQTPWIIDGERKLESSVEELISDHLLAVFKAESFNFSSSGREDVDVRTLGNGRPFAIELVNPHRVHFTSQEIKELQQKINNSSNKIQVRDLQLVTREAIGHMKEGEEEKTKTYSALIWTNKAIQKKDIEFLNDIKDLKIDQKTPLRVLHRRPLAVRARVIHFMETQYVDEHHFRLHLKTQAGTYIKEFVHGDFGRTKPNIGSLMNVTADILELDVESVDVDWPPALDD
UniProt Q9NR77: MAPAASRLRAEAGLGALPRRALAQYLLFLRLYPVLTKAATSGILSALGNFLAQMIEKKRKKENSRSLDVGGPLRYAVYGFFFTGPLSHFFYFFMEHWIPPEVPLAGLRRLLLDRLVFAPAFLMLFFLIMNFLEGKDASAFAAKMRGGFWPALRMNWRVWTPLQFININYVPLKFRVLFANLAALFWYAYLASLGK
UniProt P08575: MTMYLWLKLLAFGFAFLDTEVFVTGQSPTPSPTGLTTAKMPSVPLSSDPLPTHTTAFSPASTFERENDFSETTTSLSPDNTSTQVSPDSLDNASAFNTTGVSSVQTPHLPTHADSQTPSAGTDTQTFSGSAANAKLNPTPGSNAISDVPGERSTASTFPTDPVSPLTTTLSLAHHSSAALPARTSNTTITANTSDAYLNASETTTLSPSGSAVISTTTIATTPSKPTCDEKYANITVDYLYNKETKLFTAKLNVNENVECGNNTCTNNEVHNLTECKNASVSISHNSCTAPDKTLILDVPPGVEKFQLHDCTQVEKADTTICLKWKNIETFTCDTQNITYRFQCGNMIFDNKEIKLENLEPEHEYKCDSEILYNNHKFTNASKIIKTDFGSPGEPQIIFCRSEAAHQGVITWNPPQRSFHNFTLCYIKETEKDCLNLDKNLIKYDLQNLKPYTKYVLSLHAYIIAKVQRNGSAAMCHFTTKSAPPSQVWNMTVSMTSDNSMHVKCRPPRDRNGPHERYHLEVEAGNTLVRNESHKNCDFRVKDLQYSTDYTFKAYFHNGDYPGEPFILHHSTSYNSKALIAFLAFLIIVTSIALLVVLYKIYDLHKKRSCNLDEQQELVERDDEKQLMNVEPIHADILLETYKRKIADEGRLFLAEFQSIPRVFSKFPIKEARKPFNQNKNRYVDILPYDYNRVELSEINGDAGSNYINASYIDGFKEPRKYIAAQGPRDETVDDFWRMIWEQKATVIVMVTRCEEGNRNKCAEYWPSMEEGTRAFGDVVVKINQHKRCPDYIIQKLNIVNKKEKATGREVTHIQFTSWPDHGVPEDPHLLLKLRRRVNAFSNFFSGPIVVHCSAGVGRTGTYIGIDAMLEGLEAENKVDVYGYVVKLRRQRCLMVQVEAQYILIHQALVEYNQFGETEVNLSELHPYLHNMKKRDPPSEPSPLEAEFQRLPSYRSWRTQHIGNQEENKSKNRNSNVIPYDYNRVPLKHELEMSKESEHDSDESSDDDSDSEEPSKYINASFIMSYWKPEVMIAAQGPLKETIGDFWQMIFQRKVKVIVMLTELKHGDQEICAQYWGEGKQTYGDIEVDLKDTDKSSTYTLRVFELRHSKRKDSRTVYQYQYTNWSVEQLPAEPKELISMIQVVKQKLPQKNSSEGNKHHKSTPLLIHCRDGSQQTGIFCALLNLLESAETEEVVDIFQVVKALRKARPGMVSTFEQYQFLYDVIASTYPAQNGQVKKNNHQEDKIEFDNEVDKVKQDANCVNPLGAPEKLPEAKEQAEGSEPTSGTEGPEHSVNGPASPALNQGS
UniProt P23219, whole entry, looked up: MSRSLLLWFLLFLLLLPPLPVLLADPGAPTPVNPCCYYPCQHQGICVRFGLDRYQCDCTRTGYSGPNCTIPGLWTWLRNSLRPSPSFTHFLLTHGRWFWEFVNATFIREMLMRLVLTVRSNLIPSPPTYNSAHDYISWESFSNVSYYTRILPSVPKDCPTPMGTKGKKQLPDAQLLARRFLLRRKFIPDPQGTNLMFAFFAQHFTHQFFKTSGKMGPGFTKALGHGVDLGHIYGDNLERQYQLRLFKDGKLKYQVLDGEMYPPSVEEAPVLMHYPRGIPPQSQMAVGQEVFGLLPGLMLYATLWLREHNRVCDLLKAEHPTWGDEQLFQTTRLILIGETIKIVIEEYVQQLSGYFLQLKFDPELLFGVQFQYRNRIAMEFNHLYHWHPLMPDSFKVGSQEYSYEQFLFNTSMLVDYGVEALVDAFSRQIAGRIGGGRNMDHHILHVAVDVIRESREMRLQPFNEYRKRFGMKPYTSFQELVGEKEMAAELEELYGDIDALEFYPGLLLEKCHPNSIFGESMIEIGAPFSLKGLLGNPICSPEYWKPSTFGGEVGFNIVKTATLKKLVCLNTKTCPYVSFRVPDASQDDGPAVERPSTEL
UniProt Q9Y6I8: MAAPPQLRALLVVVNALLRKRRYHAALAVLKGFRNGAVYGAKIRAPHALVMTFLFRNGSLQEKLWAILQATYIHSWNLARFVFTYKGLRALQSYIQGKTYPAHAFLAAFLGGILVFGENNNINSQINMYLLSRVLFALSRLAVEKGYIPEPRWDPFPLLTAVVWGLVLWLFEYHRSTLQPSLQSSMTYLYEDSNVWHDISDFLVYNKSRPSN
UniProt Q6PGN9: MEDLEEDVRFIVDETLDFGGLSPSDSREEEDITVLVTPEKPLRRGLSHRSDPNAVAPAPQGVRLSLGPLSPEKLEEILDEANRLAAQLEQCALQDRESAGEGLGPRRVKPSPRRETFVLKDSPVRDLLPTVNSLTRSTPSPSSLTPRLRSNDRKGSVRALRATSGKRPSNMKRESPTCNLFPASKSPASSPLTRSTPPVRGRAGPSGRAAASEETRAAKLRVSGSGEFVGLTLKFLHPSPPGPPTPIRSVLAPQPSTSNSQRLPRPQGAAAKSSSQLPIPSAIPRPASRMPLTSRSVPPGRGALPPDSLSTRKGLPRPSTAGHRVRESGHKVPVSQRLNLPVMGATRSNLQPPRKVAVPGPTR
UniProt Q8WU10: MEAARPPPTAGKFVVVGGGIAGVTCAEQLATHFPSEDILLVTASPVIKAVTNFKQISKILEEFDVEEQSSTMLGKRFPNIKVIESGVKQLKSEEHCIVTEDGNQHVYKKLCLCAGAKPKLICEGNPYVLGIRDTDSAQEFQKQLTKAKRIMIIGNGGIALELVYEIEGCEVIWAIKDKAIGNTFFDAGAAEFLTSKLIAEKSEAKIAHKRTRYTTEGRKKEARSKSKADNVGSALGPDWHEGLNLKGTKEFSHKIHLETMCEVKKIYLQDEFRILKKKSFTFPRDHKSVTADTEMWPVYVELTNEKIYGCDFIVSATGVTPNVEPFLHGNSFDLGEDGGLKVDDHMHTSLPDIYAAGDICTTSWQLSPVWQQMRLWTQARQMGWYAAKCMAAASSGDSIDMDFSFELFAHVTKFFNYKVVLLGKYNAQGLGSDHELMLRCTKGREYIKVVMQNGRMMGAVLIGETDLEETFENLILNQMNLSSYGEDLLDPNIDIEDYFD
UniProt P78330: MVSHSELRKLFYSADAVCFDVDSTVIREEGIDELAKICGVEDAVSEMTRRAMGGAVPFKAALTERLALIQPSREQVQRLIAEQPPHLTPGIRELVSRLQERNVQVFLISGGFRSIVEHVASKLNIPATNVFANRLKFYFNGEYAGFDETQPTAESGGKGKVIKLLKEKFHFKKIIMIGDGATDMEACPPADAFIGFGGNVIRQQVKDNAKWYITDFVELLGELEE
UniProt Q9BXR0: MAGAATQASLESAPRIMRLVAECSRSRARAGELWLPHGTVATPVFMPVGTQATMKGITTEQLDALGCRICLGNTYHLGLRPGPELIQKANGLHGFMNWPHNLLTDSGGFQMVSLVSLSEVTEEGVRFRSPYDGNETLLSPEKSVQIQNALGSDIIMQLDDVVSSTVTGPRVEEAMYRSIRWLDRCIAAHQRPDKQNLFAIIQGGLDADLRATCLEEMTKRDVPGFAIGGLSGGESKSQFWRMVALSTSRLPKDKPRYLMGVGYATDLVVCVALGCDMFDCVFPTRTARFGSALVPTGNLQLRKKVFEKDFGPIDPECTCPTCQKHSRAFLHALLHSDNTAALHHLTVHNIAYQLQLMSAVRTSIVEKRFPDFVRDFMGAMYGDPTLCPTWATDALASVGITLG

Assays:
Experiment in all cases: log2 fold change, soluble protein after heating vs DMSO (PISA); higher = thermal stabilisation; K562 cells, 10 uM, 30 min; active = over 0.2 and 3.5 SD of the protein, either way, in both replicates (recomputed)
erlotinib = compound: C#Cc1cccc(Nc2ncnc3cc(OCCOC)c(OCCOC)cc23)c1 [erlotinib]
How it was run: (§1)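 For each measurement, 10 μM compound was applied for 30 min to K562 cells at 2×10^6 cells/mL. Aliquots were heated for 3 min across 48°C-58°C, pooled, and extracted in PBS with 0.5% NP-40 at 4°C; the supernatant after 21,000xg for 90 min was soluble protein. This was quantified by TMTpro 16plex LC-MS/MS with channel sums equalised, and thermal stability was reported relative to control samples from duplicates, on a log2 fold-change scale.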

[1] = compound: C/C(=N\NC(=O)C1=CC(=CC=C1)S(=O)(=O)N2CCOCC2)/C3=C(C=CC(=C3)Cl)O
How it was run: as §1

[2] = compound: C1=CC(=C(C=C1Cl)C2=NC3=NC=CN=C3C(=N2)NC4=CC=NC=C4)F
How it was run: as §1

[3] = compound: C1=CC(=CC=C1C2=NC3=C(N2)C=C(C=C3)C(=O)N)OC4=CC=C(C=C4)Cl
How it was run: as §1

[4] = compound: C1=CC2=C(C=CC(=C2)/C=C\3/C(=O)NC(=NCC4=CC=CS4)S3)N=C1
How it was run: as §1

[5] = compound: C1=CC2=NC=CN=C2C=C1/C=C/3\C(=O)NC(=O)S3
How it was run: as §1

[6] = compound: C1=CC=C(C=C1)C2=NC(=C(N2)C3=CC=NC=C3)C4=CC(=C(C=C4)Cl)O
How it was run: as §1

[7] = compound: C1=CC=C2C(=C1)C3=NNC4=CC=CC(=C43)C2=O
How it was run: as §1

[8] = compound: C1CCN(C1)C(=O)NC2=CC=CC(=C2)NC3=NC=C(C(=N3)NCCC4=CN=CN4)Br
How it was run: as §1

[9] = compound: C1CN(CCC1(CC2=CC=C(C=C2)Cl)N)C3=NC=NC4=C3C=CN4
How it was run: as §1

IRAK-1-4 Inhibitor I = compound: C1COCCN1CCN2C3=CC=CC=C3N=C2NC(=O)C4=CC(=CC=C4)[N+](=O)[O-] [IRAK-1-4 Inhibitor I]
How it was run: as §1

ibrutinib = compound: C=CC(=O)N1CCC[C@@H](n2nc(-c3ccc(Oc4ccccc4)cc3)c3c(N)ncnc32)C1 [ibrutinib]
How it was run: as §1

[10] = compound: CC(=O)c1cnc2ccc(-c3cc(Cl)c(O)c(Cl)c3)nc2c1N[C@H]1CC[C@H](CN(C)C)CC1
How it was run: as §1

ralimetinib = compound: CC(C)(C)Cn1c(N)nc2ccc(-c3[nH]c(C(C)(C)C)nc3-c3ccc(F)cc3)nc21 [ralimetinib]
How it was run: as §1

[11] = compound: CC(C)(O)CC(=O)NCCn1ccc2ncnc(Nc3ccc(Oc4cccc(C(F)(F)F)c4)c(Cl)c3)c21
How it was run: as §1

[12] = compound: CC(C)C1=C2N=C(C=C(N2N=C1)NCC3=CC=CC=C3)NCCCCCCN
How it was run: as §1

[13] = compound: CC(C)C[C@@H](C=O)NC(=O)[C@H](CC(C)C)NC(=O)[C@H](CC(C)C)NC(=O)OCc1ccccc1
How it was run: as §1

pinometostat = compound: CC(C)N(C[C@H]1O[C@@H](n2cnc3c(N)ncnc32)[C@H](O)[C@@H]1O)[C@H]1C[C@@H](CCc2nc3cc(C(C)(C)C)ccc3[nH]2)C1 [pinometostat]
How it was run: as §1

[14] = compound: CC1=C(C(CC(=O)N1)C2=CC=C(C=C2)C(F)(F)F)C(=O)NC3=C(C=C4C(=C3)C=NN4)F
How it was run: as §1

[15] = compound: CC1=C(C2=C(C=C1)C(=O)C3=CC=CC=C3N2CCCN)C
How it was run: as §1

Measured: log2 fold change

PSIP1 (UniProt O75475)
inactive: erlotinib -0.041 | [1] -0.126 | [2] -0.202 | [3] 0.045 | [4] -0.052 | [5] 0.008 | [6] -0.047 | [7] -0.001 | [8] 0.023 | [9] -0.023 | IRAK-1-4 Inhibitor I -0.092 | ibrutinib 0.049 | [10] 0.003 | ralimetinib 0.055 | [11] 0.054 | [12] 0.015 | [13] 0.136 | pinometostat 0.154 | [14] 0.047 | [15] 0.127

PSMA2 (UniProt P25787)
inactive: erlotinib -0.067 | [1] -0.086 | [2] 0.021 | [3] 0.02 | [4] -0.104 | [5] -0.025 | [6] 0.047 | [7] -0.018 | [8] -0.022 | [9] 0.015 | IRAK-1-4 Inhibitor I 0.012 | ibrutinib 0.008 | [10] 0.021 | ralimetinib 0.02 | [11] 0.024 | [12] 0.102 | [13] -0.074 | pinometostat -0.011 | [14] 0.001 | [15] -0.013

PSMD10 (UniProt O75832)
inactive: erlotinib 0.033 | [1] 0.091 | [2] 0.094 | [3] -0.088 | [4] 0.059 | [5] 0.014 | [6] 0.023 | [7] 0.023 | [8] -0.014 | [9] -0.018 | IRAK-1-4 Inhibitor I -0.007 | ibrutinib -0.02 | [10] 0.002 | ralimetinib 0.005 | [11] -0.065 | [12] 0 | [13] 0.012 | pinometostat -0.059 | [14] -0.034 | [15] 0.047

PSMB5 (UniProt P28074)
inactive: erlotinib -0.095 | [1] -0.026 | [2] 0.065 | [3] 0.002 | [4] -0.037 | [5] -0.046 | [6] 0.026 | [7] -0.01 | [8] -0.014 | [9] 0.041 | IRAK-1-4 Inhibitor I -0.006 | ibrutinib -0.011 | [10] 0.04 | ralimetinib 0.022 | [11] 0.02 | [12] 0.059 | [13] -0.133 | pinometostat -0.009 | [14] -0.028 | [15] 0.009

PTBP3 isoform 4 (UniProt O95758)
inactive: erlotinib -0.037 | [1] 0.061 | [2] 0.007 | [3] 0.007 | [4] 0.015 | [5] -0.002 | [6] -0.018 | [7] 0.018 | [8] -0.032 | [9] 0.031 | IRAK-1-4 Inhibitor I -0.066 | ibrutinib -0.009 | [10] -0.021 | ralimetinib 0.031 | [11] -0.025 | [12] -0.152 | [13] 0.004 | pinometostat -0.047 | [14] -0.031 | [15] 0.148

QSOX1 (UniProt O00391)
inactive: erlotinib -0.036 | [1] -0.063 | [2] -0.039 | [3] 0.047 | [4] 0.071 | [5] -0.005 | [6] -0.014 | [7] -0.142 | [8] -0.019 | [9] -0.072 | IRAK-1-4 Inhibitor I 0.034 | ibrutinib -0.071 | [10] -0.105 | ralimetinib -0.037 | [11] 0.163 | [12] 0.036 | [13] 0.034 | pinometostat -0.105 | [14] 0.018 | [15] -0.011

PUS10 (UniProt Q3MIT2)
inactive: erlotinib 0.028 | [1] 0.1 | [2] 0.087 | [3] -0.18 | [4] -0.082 | [5] 0.067 | [6] -0.096 | [7] 0.109 | [8] -0.015 | [9] 0.056 | IRAK-1-4 Inhibitor I -0.009 | ibrutinib 0.079 | [10] -0.253 | ralimetinib -0.004 | [11] -0.023 | [12] -0.087 | [13] 0.057 | pinometostat 0.017 | [14] -0.073 | [15] -0.072

PXMP2 (UniProt Q9NR77)
inactive: erlotinib 0.023 | [1] 0.044 | [2] 0 | [3] -0.021 | [4] 0.032 | [5] -0.001 | [6] 0.043 | [7] -0.008 | [8] -0.045 | [9] 0.026 | IRAK-1-4 Inhibitor I 0.045 | ibrutinib -0.012 | [10] -0.016 | ralimetinib -0.101 | [11] 0.037 | [12] -0.06 | [13] -0.039 | pinometostat -0.041 | [14] 0.021 | [15] 0.029

PTPRC (UniProt P08575)
inactive: erlotinib -0.012 | [1] -0.005 | [2] 0.061 | [3] -0.016 | [4] 0.025 | [5] 0.007 | [6] 0.04 | [7] -0.059 | [8] -0.012 | [9] 0.048 | IRAK-1-4 Inhibitor I 0.03 | ibrutinib 0.018 | [10] -0.057 | ralimetinib -0.025 | [11] 0 | [12] 0.133 | [13] -0.007 | pinometostat -0.021 | [14] -0.012 | [15] 0.01

PTGS1 isoform 6 (UniProt P23219)
inactive: erlotinib 0.02 | [1] -0.047 | [2] 0.022 | [3] 0.011 | [4] 0.015 | [5] 0.034 | [6] 0.008 | [7] 0.019 | [8] -0.008 | [9] 0.033 | IRAK-1-4 Inhibitor I 0.009 | ibrutinib -0.012 | [10] 0.018 | ralimetinib -0.036 | [11] 0.006 | [12] 0.035 | [13] 0.019 | pinometostat 0.04 | [14] -0.011 | [15] 0.012

PTAR1 (UniProt Q7Z6K3)
inactive: erlotinib 0.028 | [1] 0.166 | [2] -0.078 | [3] 0.059 | [4] -0.003 | [5] -0.025 | [6] -0.025 | [7] 0.044 | [8] -0.023 | [9] 0.126 | IRAK-1-4 Inhibitor I 0.06 | ibrutinib 0.066 | [10] -0.082 | ralimetinib -0.069 | [11] -0.035 | [12] 0.003 | [13] 0.037 | pinometostat -0.034 | [14] -0.024 | [15] -0.055

PXMP4 (UniProt Q9Y6I8)
inactive: erlotinib -0.001 | [1] 0.097 | [2] 0.018 | [3] 0.006 | [4] 0.013 | [5] -0.038 | [6] -0.009 | [7] 0.1 | [8] -0.033 | [9] 0.018 | IRAK-1-4 Inhibitor I 0.039 | ibrutinib 0.066 | [10] -0.039 | ralimetinib -0.077 | [11] -0.003 | [12] 0.039 | [13] -0.011 | pinometostat 0.136 | [14] -0.02 | [15] 0.076

PSRC1 (UniProt Q6PGN9)
inactive: erlotinib 0.066 | [1] -0.044 | [2] 0.039 | [3] 0 | [4] 0.028 | [5] 0.042 | [6] 0.067 | [7] 0.016 | [8] 0.013 | [9] -0.087 | IRAK-1-4 Inhibitor I -0.041 | ibrutinib 0.035 | [10] -0.076 | ralimetinib 0.162 | [11] 0.027 | [12] -0.178 | [13] 0.246 | pinometostat 0.106 | [14] 0.026 | [15] 0.005

PYROXD1 (UniProt Q8WU10)
inactive: erlotinib 0.073 | [1] 0.139 | [2] -0.088 | [3] -0.093 | [4] 0.185 | [5] 0.084 | [6] 0.457 | [7] 0.003 | [8] -0.012 | [9] -0.016 | IRAK-1-4 Inhibitor I 0.118 | ibrutinib -0.079 | [10] -0.082 | ralimetinib 0.025 | [11] 0.023 | [12] -0.035 | [13] -0.009 | pinometostat 0.019 | [14] 0.002 | [15] 0.017

PSPH (UniProt P78330)
inactive: erlotinib 0.014 | [1] 0.075 | [2] 0.045 | [3] -0.009 | [4] 0.067 | [5] 0.031 | [6] -0.021 | [7] -0.006 | [8] 0.003 | [9] 0.046 | IRAK-1-4 Inhibitor I 0.002 | ibrutinib 0.006 | [10] 0.017 | ralimetinib -0.013 | [11] 0.015 | [12] 0.004 | [13] -0.014 | pinometostat -0.058 | [14] 0.023 | [15] 0.006

QTRT1 (UniProt Q9BXR0)
inactive: erlotinib 0.029 | [1] 0.054 | [2] 0.066 | [3] 0.031 | [4] 0.036 | [5] 0.013 | [6] 0.022 | [7] -0.012 | [8] 0.03 | [9] 0.038 | IRAK-1-4 Inhibitor I 0.033 | ibrutinib 0.047 | [10] -0.036 | ralimetinib 0.001 | [11] -0.039 | [12] 0.017 | [13] -0.027 | pinometostat -0.01 | [14] 0.001 | [15] 0.025
